Test results taken from article PMC12040169 (PLOS Biology, 2025).
Some of the results follow.

Tested on: T1, CTL2-GFP (C. trachomatis L2/434/Bu, GFP-expressing)
T1 construct: L2/434/Bu, GFP-expressing
Design: species or system HeLa; Intracellular C. trachomatis growth in HeLa cells, bulk GFP fluorescence relative to DMSO
Settings: bulk GFP, single well; 28.5 h, 10 µM; inhibitor

| Structure (SMILES) | % of control remaining [%] |
| --- | --- |
| O=C(NCC1COc2ccccc2O1)N1CCN(c2ccc(F)cc2)CC1 (stereo not shown) [CBK156387] | 124.564 |
| COC(=O)c1ccc2oc(-c3cc(C(O)CNC(C)(C)C)ccc3OC(C)C)cc(=O)c2c1 (stereo not shown) [CBK009944C] | 98.3031 |
| COc1cncc(-c2cncc(Nc3ccccc3)n2)c1 [CBK065435] | 95.4773 |
| Cn1nc2n(C)c(=O)c3ccc(C(=O)NC4CCCC4)cc3n2c1=O [CBK287811] | 86.918 |
| CC1CC1c1nnc(C2(c3ccc(Br)cc3)CCOCC2)o1 (stereo not shown) [CBK304712] | 135.756 |
| COc1ccc(F)cc1-c1ccc(CC2(C(=O)NCc3cccs3)CCOCC2)cc1 [CBK285540] | 81.981 |
| Nc1ncc(-c2ccc(C(F)(F)F)cc2)c(C2CCCN(C(=O)C3CCCCC3)C2)n1 (stereo not shown) [CBK285791] | 126.564 |
| O=C(NNC(=O)C1CCN(S(=O)(=O)c2ccc(Br)cc2)CC1)NC12CC3CC(CC(C3)C1)C2 [CBK266907] | 168.475 |
| O=C(Nc1c(F)cccc1F)N(Cc1ccc2ccccc2c1)CC1CCNCC1 [CBK119480] | 126.018 |
| COc1ccc([C@@]23CC[C@@H](Nc4nc(-c5ccc(Br)cc5)cs4)C[C@@H]2N(C)CC3)cc1OC [CBK036543] | 36.9293 |
| CC(CN1CCCC1)NC(=O)c1ccc2c(c1)ncn2C (stereo not shown) [CBK281715] | 98.8485 |
| C[C@@H]1[C@H](c2ccccc2)OC(=O)N1C1CCN(S(=O)(=O)c2cccs2)CC1 [CBK043302] | 101.135 |
| CNC(=O)c1cc(S(=O)(=O)N(C2CC2)C2CCc3ccccc32)cn1C (stereo not shown) [CBK305988] | 104.073 |
| CC(C)[C@@H](CO)Nc1cncc(-c2cccc(CO)c2)n1 [CBK065427] | 174.281 |
| O=C(O)C1CSC(c2ccc([N+](=O)[O-])cc2)N1 (stereo not shown) [CBK260909] | 101.997 |
| c1cnc(OC2CCN(CC3CCCCC3)CC2)c(OCCN2CCOCC2)n1 [CBK082941T] | 96.7369 |
| O=C1CNC(=O)C2(C/C=C/C[C@H]3COCC[C@@H]3N1)CCN(C(=O)CCc1cccnc1)CC2 [CBK292051] | 102.695 |
| COc1ccc(-c2cc(C(=O)Nc3nccs3)cnc2-c2ccc(Cl)cc2)cc1 [CBK037553] | 205.175 |
| Oc1c(C(Nc2cccnc2)c2cccs2)ccc2cccnc12 (stereo not shown) [CBK268637] | 49.2071 |
| CC(=O)N1CCC(C(=O)NC(=O)Nc2ccccc2F)CC1 [CBK034848] | 108.262 |
| CCN(CC)CCN1CCN(c2cc(-c3ccc4c(c3)OCO4)ncn2)CC1 [CBK037694] | 150.588 |
| Cc1cn(CC(=O)N2CCCC3(CCN(C(=O)c4ccoc4)C3)C2)c(=O)[nH]c1=O (stereo not shown) [CBK131634] | 103.562 |
| Cc1ccc(CCP(=O)(O)CN2CCOCC2)cn1 [CBK022176] | 115.719 |
| Cn1ccnc1C1(O)CCN(C(=O)c2cc(F)cc(F)c2)CC1 [CBK283544] | 107.334 |
| Cc1ccc(-c2noc([C@@H]3Cc4[nH]cnc4CN3C(=O)CCC(=O)O)n2)cc1 [CBK288958] | 131.7 |

| Structure (SMILES) | % of control remaining [%] |
| --- | --- |
| Cc1nn(C)c(C)c1CCC(=O)NCC1CCN(c2ccccc2F)C1 (stereo not shown) [CBK304357] | 126.478 |
| O=C(O)CCc1ccc(S(=O)(=O)Nc2ccccc2Cc2ccccc2)cc1 [CBK295616] | 127.892 |
| COc1ccc(S(=O)(=O)N(C)CC(=O)N2CCOCC2)cc1C [CBK267898] | 113.817 |
| Cc1cc(C)c2nc(NC(=O)c3ccc(=O)n(CC(=O)N(C)c4ccccc4)c3)sc2c1 [CBK286025] | 99.2611 |
| CC(C)C(=O)N1CCC(n2c(=O)oc3ccc(Cl)cc32)CC1 [CBK284339] | 100.955 |
| Cc1cc2cc(C(=O)NCC3(N(C)C)CCN(C)CC3)ccc2o1 [CBK282623] | 112.036 |
| CC(=O)Nc1ccc(C(=O)NCc2ccc(OCC(F)(F)F)cc2)cc1 [CBK305732] | 141.961 |
| CC(C)(C)CC(=O)N1CCCC1c1n[nH]cc1-c1ccncc1 (stereo not shown) [CBK283430] | 120.105 |
| CCCCCN1CCn2nc(CNc3cnccn3)cc2C1 [CBK306713] | 147.234 |
| Cc1nc2cc(OCc3nc(C(=O)N(CCO)CCO)co3)ccc2s1 [CBK307684] | 130.282 |
| CC(=O)Nc1ccccc1-c1nc2ccccc2nc1OCC(=O)c1ccc(Cl)cc1 [CBK266269] | 157.392 |
| O=C(c1ccno1)n1nccc1-c1cc(-c2ccccc2)no1 [CBK022074] | 122.063 |
| COc1ccc(CN2CCN(C(=O)c3ccccc3F)CC2)c(OC)c1 [CBK033601] | 126.364 |
| O=C(CN1CCN(C(c2ccccc2)c2ccccc2)CC1)Nc1c2c(nc3ccccc13)CCC2 [CBK278299G] | 98.374 |
| CSCCC(NC(=O)C1CCC(C)CC1)C(=O)O (stereo not shown) [CBK286552] | 113.69 |
| N#Cc1c(F)cccc1NCc1cccnc1 [CBK057053] | 106.205 |
| CN(C)Cc1cc(-c2ccc(CNC(=O)C3CC3)cc2)nn1C [CBK283470] | 129.036 |
| COc1ccc([C@@]23CC[C@H](NC(=O)Nc4ccc(F)c(F)c4)C[C@@H]2N(Cc2ccccc2)CC3)cc1OC [CBK041333T] | 81.8518 |
| O=C(NCCC1SC(NC2CC3C=CC2C3)=NC1=O)c1ccccc1Cl (stereo not shown) [CBK200062] | 110.412 |
| C=CCC1c2cccc(C(=O)O)c2C(=O)N1c1ccc(F)cc1 (stereo not shown) [CBK113158] | 105.935 |
| COc1ccc(NC(=O)Nc2ccccc2C(N)=O)cc1OC [CBK267061] | 151.657 |
| NC(=O)NC(Cc1c[nH]c2ccccc12)C(=O)O (stereo not shown) [CBK218895] | 130.924 |
| CCOC(=O)N1CCN(C(C(=O)O)c2c[nH]c3ccc(C)cc23)CC1 (stereo not shown) [CBK286632] | 87.9818 |
| COc1ccc(CNC(=O)C2CCCN(c3nc4c(-c5ccc(C)cc5)csc4c(=O)[nH]3)C2)cc1 (stereo not shown) [CBK215530] | 109.006 |

Shown tab-delimited: part of the list above.
Structure (SMILES)	% of control remaining [%]
CC(=O)Nc1ccc(C(=O)NCc2ccc(OCC(F)(F)F)cc2)cc1 [CBK305732]	141.961
O=C(c1ccno1)n1nccc1-c1cc(-c2ccccc2)no1 [CBK022074]	122.063
